Record: PubChem BioAssay AID1224831 (NIAID, 2016)
This is one part, drawn at random, of about 3,500 reagents. Over the whole deposit, 731 (21%) got an active call. 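Active means either lowered or raised reporter signal; the gene-median score did not drive the per-siRNA calls.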 Entries without a mark were called inactive. Reagents against one gene are numbered here.

Screen: 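Retesting screen hits on the TLR4-driven TNF response with six separate siRNAs each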 (follow-up of hits)
System: human THP-1 B5 monocytic leukaemia cells carrying a TNF promoter luciferase reporter, made macrophage-like with PMA
Reagent: single siRNA against human genes, 50 nM
Duration: about 68 h of knock-down, then 4 h LPS
Treatment: LPS (Salmonella minnesota, TLR-grade) at 10 ng/ml for 4 h; PMA 5 ng/ml present during knock-down
Read-out: 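TNF promoter reporter read as dual luciferase ratio after 4 h LPS, normalised per plate to its median, given as replicate mean robust z-score per siRNA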
Scale: TNF reporter z-score: higher = stronger LPS-induced TNF reporter signal; z-score, median over gene's siRNAs: higher = stronger TNF reporter signal across the gene's siRNAs
Call rule: 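Two-sided call: reduced or raised TNF reporter signal counts as active once mean z reaches about -1 or below, or about 1.5 or above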
Meaning of the calls: active = changed TNF reporter (either direction); inactive = little change

{"gene": "ASB14", "siRNA no.": 1, "TNF reporter z-score, replicate mean": -0.98, "z-score, median over gene's siRNAs": -0.545}
{"gene": "ASB14", "siRNA no.": 2, "TNF reporter z-score, replicate mean": -0.08, "z-score, median over gene's siRNAs": -0.545}
{"gene": "ASB14", "siRNA no.": 3, "TNF reporter z-score, replicate mean": "-1.23 (active)", "z-score, median over gene's siRNAs": -0.545}
{"gene": "ASB14", "siRNA no.": 4, "TNF reporter z-score, replicate mean": 0.17, "z-score, median over gene's siRNAs": -0.545}
{"gene": "ASB14", "siRNA no.": 5, "TNF reporter z-score, replicate mean": "-1.28 (active)", "z-score, median over gene's siRNAs": -0.545}
{"gene": "ASB14", "siRNA no.": 6, "TNF reporter z-score, replicate mean": -0.11, "z-score, median over gene's siRNAs": -0.545}
{"gene": "PIK3C2G", "siRNA no.": 1, "TNF reporter z-score, replicate mean": 0.66, "z-score, median over gene's siRNAs": 0.405}
{"gene": "PIK3C2G", "siRNA no.": 2, "TNF reporter z-score, replicate mean": 0.9, "z-score, median over gene's siRNAs": 0.405}
{"gene": "PIK3C2G", "siRNA no.": 3, "TNF reporter z-score, replicate mean": -0.67, "z-score, median over gene's siRNAs": 0.405}
{"gene": "PIK3C2G", "siRNA no.": 4, "TNF reporter z-score, replicate mean": -0.7, "z-score, median over gene's siRNAs": 0.405}
{"gene": "PIK3C2G", "siRNA no.": 5, "TNF reporter z-score, replicate mean": "1.72 (active)", "z-score, median over gene's siRNAs": 0.405}
{"gene": "PIK3C2G", "siRNA no.": 6, "TNF reporter z-score, replicate mean": 0.15, "z-score, median over gene's siRNAs": 0.405}
{"gene": "SLC26A9", "siRNA no.": 1, "TNF reporter z-score, replicate mean": 0.96, "z-score, median over gene's siRNAs": 0.785}
{"gene": "SLC26A9", "siRNA no.": 2, "TNF reporter z-score, replicate mean": 1.44, "z-score, median over gene's siRNAs": 0.785}
{"gene": "SLC26A9", "siRNA no.": 3, "TNF reporter z-score, replicate mean": 0.65, "z-score, median over gene's siRNAs": 0.785}
{"gene": "SLC26A9", "siRNA no.": 4, "TNF reporter z-score, replicate mean": "-1.35 (active)", "z-score, median over gene's siRNAs": 0.785}
{"gene": "SLC26A9", "siRNA no.": 5, "TNF reporter z-score, replicate mean": 0.92, "z-score, median over gene's siRNAs": 0.785}
{"gene": "SLC26A9", "siRNA no.": 6, "TNF reporter z-score, replicate mean": "-1.29 (active)", "z-score, median over gene's siRNAs": 0.785}
{"gene": "BCL6", "siRNA no.": 1, "TNF reporter z-score, replicate mean": "-1.21 (active)", "z-score, median over gene's siRNAs": -1.4}
{"gene": "BCL6", "siRNA no.": 2, "TNF reporter z-score, replicate mean": "-2.01 (active)", "z-score, median over gene's siRNAs": -1.4}
{"gene": "BCL6", "siRNA no.": 3, "TNF reporter z-score, replicate mean": "-2.72 (active)", "z-score, median over gene's siRNAs": -1.4}
{"gene": "BCL6", "siRNA no.": 4, "TNF reporter z-score, replicate mean": "-1.37 (active)", "z-score, median over gene's siRNAs": -1.4}
{"gene": "BCL6", "siRNA no.": 5, "TNF reporter z-score, replicate mean": "-1.3 (active)", "z-score, median over gene's siRNAs": -1.4}
{"gene": "BCL6", "siRNA no.": 6, "TNF reporter z-score, replicate mean": "-1.43 (active)", "z-score, median over gene's siRNAs": -1.4}
{"gene": "DESI1", "siRNA no.": 1, "TNF reporter z-score, replicate mean": "-1.12 (active)", "z-score, median over gene's siRNAs": 1.06}
{"gene": "DESI1", "siRNA no.": 2, "TNF reporter z-score, replicate mean": "1.56 (active)", "z-score, median over gene's siRNAs": 1.06}
{"gene": "DESI1", "siRNA no.": 3, "TNF reporter z-score, replicate mean": 1.32, "z-score, median over gene's siRNAs": 1.06}
{"gene": "DESI1", "siRNA no.": 4, "TNF reporter z-score, replicate mean": 0.8, "z-score, median over gene's siRNAs": 1.06}
{"gene": "DESI1", "siRNA no.": 5, "TNF reporter z-score, replicate mean": 0.21, "z-score, median over gene's siRNAs": 1.06}
{"gene": "DESI1", "siRNA no.": 6, "TNF reporter z-score, replicate mean": "2.22 (active)", "z-score, median over gene's siRNAs": 1.06}

Only “TNF reporter z-score, replicate mean” (4 entries from above):
BCL6 #4 = -1.37 (active)
BCL6 #5 = -1.3 (active)
BCL6 #6 = -1.43 (active)
DESI1 #1 = -1.12 (active)
